Data taken from PubChem BioAssay AID1918961, deposited by NCATS (2023).

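Karpas417 multiple myeloma cells given drugs for 48 h, with survival judged from ATP-driven luminescence (CellTiter-Glo) relative to DMSO-only wells. Each compound was run as a dilution series from about 0.00003 to 92 µM. The value is the fitted AC50, the concentration giving half the maximal effect; a lower value means a more potent compound. Calls follow the NCATS curve-class score: active scores 40–100, while inconclusive scores 1–39 cover weak, poorly fitted, top-dose-only or opposite-direction curves.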

Values are in nM. All entries here are filed as inconclusive. Only part of the assay is shown, chiefly results filed as inconclusive. Potencies fitted to partial, single-point or poorly fitting curves are rough. The first word of each remark tells which way the curve ran; it can be opposite to the aim of the assay. Activity scores are not listed here.

Result for CNC(=O)c1ccccc1Nc1nc(Nc2ccc(N3CCOCC3)cc2OC)ncc1Cl was Potency 33173 nM (rising, partial curve, poor fit).
Result for O=C(Nc1ccc(F)c(C(F)(F)F)c1)Nc1nnc(-c2ccncc2)s1 was Potency 11770 nM (rising, single point).
Result for COc1cc(Nc2ncc(F)c(Nc3ccc4c(n3)NC(=O)C(C)(C)O4)n2)cc(OC)c1OC was Potency 661.9 nM (cytotoxic, full curve, poor fit).
Result for Cc1c(C)c2c(c(C)c1O)CCC(C)(COc1ccc(CC3SC(=O)NC3=O)cc1)O2 (stereo not shown) was Potency 1663 nM (rising, full curve, poor fit).
Result for N=C(N)c1ccc(OCCCCCOc2ccc(C(=N)N)cc2)cc1 was Potency 14817 nM (rising, partial curve).
Result for Cc1nc(C(=O)NCC(=O)O)c(O)c2ccc(Oc3ccccc3)cc12 was Potency 23484 nM (cytotoxic, partial curve).
Result for CN1C(C(=O)Nc2ccccn2)=C(O)c2sc(Cl)cc2S1(=O)=O was Potency 14817 nM (cytotoxic, partial curve, poor fit).
Result for CCc1cc2c(cc1N1CCC(N3CCOCC3)CC1)C(C)(C)c1[nH]c3cc(C#N)ccc3c1C2=O was Potency 5899 nM (rising, partial curve, poor fit).
Result for CC(C)(C)Cn1c(N)nc2ccc(-c3[nH]c(C(C)(C)C)nc3-c3ccc(F)cc3)nc21 was Potency 33.2 nM (rising, full curve, poor fit).
Result for CC(=CC(=O)Nc1ccccc1C(=O)O)c1ccc2ccccc2c1 was Potency 18654 nM (cytotoxic, partial curve, poor fit).
Result for Cc1cc(SCc2sc(-c3ccc(C(F)(F)F)cc3)nc2C)ccc1OCC(=O)O was Potency 33173 nM (rising, single point).
Result for CN(CC=CC#CC(C)(C)C)Cc1cccc2ccccc12 was Potency 29565 nM (cytotoxic, single point).
Result for COc1cc(N2CCC(N3CCN(C)CC3)CC2)ccc1Nc1ncnc(Nc2ccccc2S(=O)(=O)C(C)C)n1 was Potency 10.5 nM (rising, full curve, poor fit).
Result for C[C@@H](c1ncncc1F)[C@](O)(Cn1cncn1)c1ccc(F)cc1F was Potency 20930 nM (rising, partial curve, poor fit).
Result for O=NN(CCCl)C(=O)NCCCl was Potency 3317 nM (rising, full curve, poor fit).
Result for COc1cc2c(Oc3ccc4[nH]c(C)cc4c3F)ncnc2cc1OCCCN1CCCC1 was Potency 1663 nM (cytotoxic, partial curve, poor fit).

2 of the entries, repeated:

structure	Potency (nM)	curve as filed
CN1C(C(=O)Nc2ccccn2)=C(O)c2sc(Cl)cc2S1(=O)=O	14817	cytotoxic, partial curve, poor fit
CN(CC=CC#CC(C)(C)C)Cc1cccc2ccccc12	29565	cytotoxic, single point